Data as given in PubChem BioAssay AID1259331 (Drosophila RNAi Screening Center, 2017).
Shown is one part, drawn at random, of about 3,100 reagents tested. 126 of them (4.1%) were called active. 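Calls are per reagent; zinc was so toxic that few knock-downs lowered ATP further, so most hits raise ATP.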 The raw values are shown without normalisation. A plus sign joins genes that one reagent is predicted to hit. No sequences are given here. Not stated in the record: the amount of reagent.

Assay: 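Genes whose knock-down changes cell survival under toxic zinc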 (primary screen)
System: Drosophila S2R+ cells
Knock-down reagent: long dsRNA against Drosophila genes
Time to read-out: 5 days (4 days knock-down, then 1 day zinc)
Conditions: zinc chloride at 15 mM final level for 1 day
Detection: 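Total cellular ATP measured by luciferase luminescence as a viability proxy, turned into Z scores from three plate copies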
Reading the numbers: mean Z score: higher = more ATP than other wells, better survival under zinc; ATP luminescence: higher = more ATP, more viable cells
Call rule: 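a reagent is called a hit when its Z score is above 1.5 or below -1.5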
Meaning of the calls: active = hit, ATP up or down; inactive = not a hit

The opening 10 entries, to show the layout:
target	DRSC id	mean Z score	ATP luminescence, replicate 1	ATP luminescence, replicate 2	call
Nmdar2	DRSC18183	-0.0886	37519	45920	inactive
Nmdar2	DRSC18569	-0.926	50481	50909	inactive
Dh44-R2	DRSC06141	-0.146	63513	69430	inactive
PIG-G	DRSC06823	-0.341	31197	27335	inactive
ppk25	DRSC04973	-0.506	87007	64051	inactive
ppk25	DRSC27513	0.0532	50515	61181	inactive
CG12490 + CG30265	DRSC25712	-0.0936	54716	61592	inactive
EloA	DRSC16109	0.813	57305	53464	inactive
EloA	DRSC23920	2.15	82499	88982	active
CG42638 + Trpml	DRSC11032	0.0816	29753	33524	inactive

Results, from the first entry:
target	DRSC id	mean Z score	ATP luminescence, replicate 1	ATP luminescence, replicate 2	call
Nmdar2	DRSC18183	-0.0886	37519	45920	inactive
Nmdar2	DRSC18569	-0.926	50481	50909	inactive
Dh44-R2	DRSC06141	-0.146	63513	69430	inactive
PIG-G	DRSC06823	-0.341	31197	27335	inactive
ppk25	DRSC04973	-0.506	87007	64051	inactive
ppk25	DRSC27513	0.0532	50515	61181	inactive
CG12490 + CG30265	DRSC25712	-0.0936	54716	61592	inactive
EloA	DRSC16109	0.813	57305	53464	inactive
EloA	DRSC23920	2.15	82499	88982	active
CG42638 + Trpml	DRSC11032	0.0816	29753	33524	inactive
CG42638 + Trpml	DRSC39630	-0.508	54339	53589	inactive
mGluR	DRSC17215	-0.712	57014	51407	inactive
mGluR	DRSC39626	-0.481	57974	51561	inactive
NijB	DRSC09850	0.766	40536	37292	inactive
NijB	DRSC39587	-0.0524	61609	56534	inactive
PGAP1	DRSC18286	-0.604	40496	37399	inactive
PGAP1	DRSC28989	0.0459	65800	58335	inactive
Or85d	DRSC16767	-0.121	35393	53675	inactive
Or85d	DRSC26656	-0.181	72277	47683	inactive
CG42594	DRSC18408	-0.61	53636	58265	inactive
CG42594	DRSC28979	0.223	66736	62878	inactive
Mvl	DRSC16752	-0.0746	43434	47549	inactive
Mvl	DRSC39671	0.961	76925	77800	inactive
CG6928	DRSC10749	-0.359	28125	28928	inactive
CG6928	DRSC39754	2.33	95245	96745	active
CG7333	DRSC16229	-0.276	34227	59963	inactive
Sema5c	DRSC11279	0.372	82467	67602	inactive
Sema5c	DRSC26621	0.168	68949	47137	inactive
ninaD	DRSC02886	0.442	56724	38890	inactive
ninaD	DRSC24484	-0.129	53927	53533	inactive
Tsp39D	DRSC03099	-0.991	40828	33456	inactive
BI-1	DRSC10782	0.254	31760	32684	inactive
BI-1	DRSC39448	0.171	53918	54390	inactive
CG9555	DRSC03264	-0.835	28947	36027	inactive
CG9555	DRSC25330	-0.372	45085	56911	inactive
Ir85a	DRSC14382	1.27	45680	65897	inactive
Ir85a	DRSC29077	0.265	65914	65022	inactive
Ac3	DRSC03692	-0.594	26411	27885	inactive
Ac3	DRSC39826	-0.236	53329	52428	inactive
Or65c	DRSC21312	-0.00856	48479	48183	inactive
Or65c	DRSC39421	2	82517	73203	active
CG1724	DRSC20548	-0.0711	43571	42405	inactive
CG1724	DRSC25668	-0.0227	52272	69975	inactive
Gr98a	DRSC14719	-0.862	43879	39249	inactive
fra	DRSC07621	0.0771	60615	78828	inactive
Tsp42Ed	DRSC05940	-0.487	80752	65365	inactive
Tsp42Ed	DRSC39728	1.47	80784	86085	inactive
Tom7	DRSC05135	0.0619	41771	45016	inactive
Tom7	DRSC07113	-0.211	99085	67766	inactive
fz	DRSC11348	0.109	80128	64525	inactive
fz	DRSC39155	0.00563	47240	47154	inactive
Gr64d + Gr64e	DRSC28375	-0.215	57339	58831	inactive
Gr64d + Gr64e	DRSC39759	-0.369	58831	56758	inactive
Gr64d + Gr64e	DRSC39760	-0.202	55813	61141	inactive
CG4465	DRSC15584	-0.815	41702	39045	inactive
CG4465	DRSC39564	-0.551	48269	54056	inactive
mthl14	DRSC07865	-0.188	44085	41119	inactive
mthl14	DRSC39645	-0.0492	60430	56239	inactive
MFS10	DRSC19888	-0.627	38816	38633	inactive
MFS10	DRSC26960	-0.341	58797	46914	inactive
CG11426	DRSC11658	-0.231	69704	56293	inactive
CG11426	DRSC27815	-0.47	58849	56117	inactive
CG11426	DRSC37070	-0.316	47651	40879	inactive
Dolk	DRSC07143	1.1	82952	95228	inactive
Dolk	DRSC39578	-0.173	57785	58386	inactive
Gr36a	DRSC22663	-0.426	49040	36422	inactive
Gr36a	DRSC27724	-0.258	51972	54403	inactive
por	DRSC29877	0.308	50189	50800	inactive
por	DRSC39827	-0.43	51955	48234	inactive
gny	DRSC02810	-0.448	48012	51904	inactive
gny	DRSC39750	0.0263	62244	56791	inactive
ppk10	DRSC01123	0.0917	42714	46177	inactive
CG1246	DRSC08275	-0.0464	75844	70374	inactive
CG1246	DRSC39873	-0.502	47189	54905	inactive
CG11437	DRSC11659	0.0174	71333	62844	inactive
MstProx	DRSC12458	0.194	65262	73354	inactive
MstProx	DRSC12601	0.0999	45508	46331	inactive
Tret1-2	DRSC07117	2.73	1.35e5	1.37e5	active
Tret1-2	DRSC28985	0.0661	63890	60906	inactive
kar	DRSC14496	0.686	51978	53121	inactive
kar	DRSC39488	-0.818	39319	34227	inactive
CG2061	DRSC19348	-0.218	42422	45525	inactive
CG2061	DRSC39511	0.958	60666	67252	inactive
Scgbeta	DRSC15854	-0.435	35513	52847	inactive
CG32547	DRSC19263	0.755	91951	88726	inactive
CG32547	DRSC19474	-0.0467	31107	31056	inactive
Nrg	DRSC17573	0.437	77043	77044	inactive
Nrg	DRSC18688	-0.0354	45594	46246	inactive
Nrg	DRSC27797	0.312	66051	61627	inactive
